In PMC9440387:
Results are given in words; binding and its absence hold for the method and conditions named. In cells and extracts the contact can be indirect. Here binding means that the protein was enriched with, or labelled near, the bait; the list need not be complete. Sequences can lack the tags named with a protein.

The chains behind the UniProt entries cited, without tags or fusion partners. Where a name states a change or a piece, a line headed by the entry shows the natural chain unless it says otherwise.
UniProt Q9UNE7: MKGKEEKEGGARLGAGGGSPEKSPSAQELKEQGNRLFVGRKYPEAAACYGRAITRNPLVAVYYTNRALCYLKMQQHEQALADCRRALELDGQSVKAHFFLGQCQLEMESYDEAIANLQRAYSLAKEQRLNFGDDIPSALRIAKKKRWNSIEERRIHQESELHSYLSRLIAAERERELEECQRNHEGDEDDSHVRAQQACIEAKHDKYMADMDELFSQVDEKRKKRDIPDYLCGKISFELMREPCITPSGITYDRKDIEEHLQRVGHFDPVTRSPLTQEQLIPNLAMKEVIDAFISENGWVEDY
UniProt Q9UJX4: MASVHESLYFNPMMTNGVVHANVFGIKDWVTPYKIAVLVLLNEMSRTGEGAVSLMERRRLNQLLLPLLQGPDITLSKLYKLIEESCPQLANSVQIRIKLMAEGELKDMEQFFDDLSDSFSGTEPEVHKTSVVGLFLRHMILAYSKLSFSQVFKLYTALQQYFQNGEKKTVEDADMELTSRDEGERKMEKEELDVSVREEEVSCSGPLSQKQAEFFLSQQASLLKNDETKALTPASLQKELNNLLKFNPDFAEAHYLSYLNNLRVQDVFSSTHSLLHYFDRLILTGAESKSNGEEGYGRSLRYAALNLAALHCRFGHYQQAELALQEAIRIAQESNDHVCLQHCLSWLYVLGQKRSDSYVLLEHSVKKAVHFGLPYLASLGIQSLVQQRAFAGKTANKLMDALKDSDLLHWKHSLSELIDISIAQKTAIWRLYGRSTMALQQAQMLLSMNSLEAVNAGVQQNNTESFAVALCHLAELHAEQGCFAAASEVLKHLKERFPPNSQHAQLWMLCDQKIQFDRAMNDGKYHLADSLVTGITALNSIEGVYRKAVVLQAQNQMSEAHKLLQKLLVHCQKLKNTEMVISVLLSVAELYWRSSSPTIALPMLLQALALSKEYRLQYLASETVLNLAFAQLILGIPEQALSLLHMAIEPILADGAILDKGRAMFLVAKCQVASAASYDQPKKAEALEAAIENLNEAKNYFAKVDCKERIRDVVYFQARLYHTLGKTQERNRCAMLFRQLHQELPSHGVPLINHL
UniProt P29590: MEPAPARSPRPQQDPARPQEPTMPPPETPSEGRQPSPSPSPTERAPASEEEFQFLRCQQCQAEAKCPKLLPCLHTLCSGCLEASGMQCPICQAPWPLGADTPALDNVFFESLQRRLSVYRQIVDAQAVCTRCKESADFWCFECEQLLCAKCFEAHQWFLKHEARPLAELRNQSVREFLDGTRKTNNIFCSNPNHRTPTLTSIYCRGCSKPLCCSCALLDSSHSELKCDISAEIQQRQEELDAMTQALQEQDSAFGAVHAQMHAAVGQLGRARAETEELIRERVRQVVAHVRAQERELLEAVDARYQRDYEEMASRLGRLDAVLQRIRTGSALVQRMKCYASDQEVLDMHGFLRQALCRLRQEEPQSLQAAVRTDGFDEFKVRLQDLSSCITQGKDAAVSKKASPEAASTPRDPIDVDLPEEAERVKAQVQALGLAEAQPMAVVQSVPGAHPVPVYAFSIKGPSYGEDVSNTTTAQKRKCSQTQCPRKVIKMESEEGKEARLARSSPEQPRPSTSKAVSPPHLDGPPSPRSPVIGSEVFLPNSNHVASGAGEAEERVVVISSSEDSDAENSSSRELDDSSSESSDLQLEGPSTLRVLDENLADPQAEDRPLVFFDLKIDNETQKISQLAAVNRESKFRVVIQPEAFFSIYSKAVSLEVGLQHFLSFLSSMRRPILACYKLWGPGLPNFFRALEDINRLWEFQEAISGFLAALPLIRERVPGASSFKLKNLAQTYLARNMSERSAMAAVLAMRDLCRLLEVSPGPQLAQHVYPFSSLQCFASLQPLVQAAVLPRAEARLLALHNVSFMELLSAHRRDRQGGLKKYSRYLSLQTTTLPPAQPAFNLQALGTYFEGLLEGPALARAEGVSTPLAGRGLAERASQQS
UniProt Q16763: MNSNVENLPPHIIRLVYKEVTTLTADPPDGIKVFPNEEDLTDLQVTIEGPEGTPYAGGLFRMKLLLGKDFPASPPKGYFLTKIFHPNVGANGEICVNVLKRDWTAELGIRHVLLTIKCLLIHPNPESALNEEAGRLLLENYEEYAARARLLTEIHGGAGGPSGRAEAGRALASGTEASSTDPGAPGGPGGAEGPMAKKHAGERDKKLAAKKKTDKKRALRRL

T1: F-box/WD40 repeat-containing protein Fbxw24 (mouse), 3xFLAG-tagged, overexpressed in HEK-293T (mouse) (UniProt E9PXM9)
T1 sequence: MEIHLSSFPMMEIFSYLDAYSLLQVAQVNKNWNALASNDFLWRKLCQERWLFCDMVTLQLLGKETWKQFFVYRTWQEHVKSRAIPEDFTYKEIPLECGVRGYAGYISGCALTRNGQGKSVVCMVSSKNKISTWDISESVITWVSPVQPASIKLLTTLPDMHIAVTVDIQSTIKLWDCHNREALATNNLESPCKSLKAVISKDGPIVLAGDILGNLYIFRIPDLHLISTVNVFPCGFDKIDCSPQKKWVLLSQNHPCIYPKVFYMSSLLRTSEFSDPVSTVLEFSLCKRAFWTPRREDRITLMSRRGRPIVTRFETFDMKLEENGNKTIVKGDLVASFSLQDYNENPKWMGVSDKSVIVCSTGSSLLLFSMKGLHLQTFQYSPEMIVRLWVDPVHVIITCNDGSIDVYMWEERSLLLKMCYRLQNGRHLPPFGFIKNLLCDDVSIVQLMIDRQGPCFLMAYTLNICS

B1: SUMO-activating enzyme subunit 2 (protein, UniProt Q9UBT2 1-640)
chain: MALSRGLPRELAEAVAGGRVLVVGAGGIGCELLKNLVLTGFSHIDLIDLDTIDVSNLNRQFLFQKKHVGRSKAQVAKESVLQFYPKANIVAYHDSIMNPDYNVEFFRQFILVMNALDNRAARNHVNRMCLAADVPLIESGTAGYLGQVTTIKKGVTECYECHPKPTQRTFPGCTIRNTPSEPIHCIVWAKYLFNQLFGEEDADQEVSPDRADPEAAWEPTEAEARARASNEDGDIKRISTKEWAKSTGYDPVKLFTKLFKDDIRYLLTMDKLWRKRKPPVPLDWAEVQSQGEETNASDQQNEPQLGLKDQQVLDVKSYARLFSKSIETLRVHLAEKGDGAELIWDKDDPSAMDFVTSAANLRMHIFSMNMKSRFDIKSMAGNIIPAIATTNAVIAGLIVLEGLKILSGKIDQCRTIFLNKQPNPRKKLLVPCALDPPNPNCYVCASKPEVTVRLNVHKVTVLTLQDKIVKEKFAMVAPDVQIEDGKGTILISSEEGETEANNHKKLSEFGIRNGSRLQADDFLQDYTLLINILHSEDLGKDVEFEVVGDAPEKVGPKQAEDAAKSITNGSDDGAQPSTSTAQEQDDVLIVDSDEEDSSNNADVSEEERSRKRKLDEKENLSAKRSRIEQKEELDDVIALD
B2: ubiquitin conjugation factor E4A (protein, UniProt Q14139 1-1066)
chain: MTDQENNNNISSNPFAALFGSLADAKQFAAIQKEQLKQQSDELPASPDDSDNSVSESLDEFDYSVAEISRSFRSQQEICEQLNINHMIQRIFLITLDNSDPSLKSGNGIPSRCVYLEEMAVELEDQDWLDMSNVEQALFARLLLQDPGNHLINMTSSTTLNLSADRDAGERHIFCYLYSCFQRAKEEITKVPENLLPFAVQCRNLTVSNTRTVLLTPEIYVDQNIHEQLVDLMLEAIQGAHFEDVTEFLEEVIEALILDEEVRTFPEVMIPVFDILLGRIKDLELCQILLYAYLDILLYFTRQKDMAKVFVEYIQPKDPTNGQMYQKTLLGVILSISCLLKTPGVVENHGYFLNPSRSSPQEIKVQEANIHQFMAQFHEKIYQMLKNLLQLSPETKHCILSWLGNCLHANAGRTKIWANQMPEIFFQMYASDAFFLNLGAALLKLCQPFCKPRSSRLLTFNPTYCALKELNDEERKIKNVHMRGLDKETCLIPAVQEPKFPQNYNLVTENLALTEYTLYLGFHRLHDQMVKINQNLHRLQVAWRDAQQSSSPAADNLREQFERLMTIYLSTKTAMTEPQMLQNCLNLQVSMAVLLVQLAIGNEGSQPIELTFPLPDGYSSLAYVPEFFADNLGDFLIFLRRFADDILETSADSLEHVLHFITIFTGSIERMKNPHLRAKLAEVLEAVMPHLDQTPNPLVSSVFHRKRVFCNFQYAPQLAEALIKVFVDIEFTGDPHQFEQKFNYRRPMYPILRYMWGTDTYRESIKDLADYASKNLEAMNPPLFLRFLNLLMNDAIFLLDEAIQYLSKIKIQQIEKDRGEWDSLTPEARREKEAGLQMFGQLARFHNIMSNETIGTLAFLTSEIKSLFVHPFLAERIISMLNYFLQHLVGPKMGALKVKDFSEFDFKPQQLVSDICTIYLNLGDEENFCATVPKDGRSYSPTLFAQTVRVLKKINKPGNMIMAFSNLAERIKSLADLQQQEEETYADACDEFLDPIMSTLMCDPVVLPSSRVTVDRSTIARHLLSDQTDPFNRSPLTMDQIRPNTELKEKIQRWLAERKQQKEQLE
B3: SUMO-activating enzyme subunit 1 (protein, UniProt Q9UBE0 1-346)
chain: MVEKEEAGGGISEEEAAQYDRQIRLWGLEAQKRLRASRVLLVGLKGLGAEIAKNLILAGVKGLTMLDHEQVTPEDPGAQFLIRTGSVGRNRAEASLERAQNLNPMVDVKVDTEDIEKKPESFFTQFDAVCLTCCSRDVIVKVDQICHKNSIKFFTGDVFGYHGYTFANLGEHEFVEEKTKVAKVSQGVEDGPDTKRAKLDSSETTMVKKKVVFCPVKEALEVDWSSEKAKAALKRTTSDYFLLQVLLKFRTDKGRDPSSDTYEEDSELLLQIRNDVLDSLGISPDLLPEDFVRYCFSEMAPVCAVVGGILAQEIVKALSQRDPPHNNFFFFDGMKGNGIVECLGPK

The molecules below were run against T1, F-box/WD40 repeat-containing protein Fbxw24 (mouse), 3xFLAG-tagged, overexpressed in HEK-293T (mouse) (assay: affinity purification with mass spectrometry; SILAC-IP-MS: 3xFLAG-Fbxw24 in HEK-293T (light) against empty vector (heavy, K6R6); 20 uM MG132 for 6 h before collection; lysis in 150 mM NaCl, 20 mM Tris pH 7.5, 2% Triton X-100; anti-FLAG beads, eluted with 3xFLAG peptide; gel bands cut for LC-MS/MS).

binding, binds:
STIP1 homology and U box-containing protein 1 (from UniProt Q9UNE7 1-303) (enzyme)
anaphase-promoting complex subunit 5 (from UniProt Q9UJX4 1-755)
protein PML (from UniProt P29590 1-882)
ubiquitin-conjugating enzyme E2S (from UniProt Q16763 1-222)
B1
B2
B3
